Experimental data as given in the supplement of paper PMC10849652.
The other results are listed elsewhere or left out.

By UniProt entry, the sequences of proteins in these tests, tags left out. Where a name states a change or a piece, a line headed by the entry shows the natural chain unless it says otherwise.
UniProt Q99719: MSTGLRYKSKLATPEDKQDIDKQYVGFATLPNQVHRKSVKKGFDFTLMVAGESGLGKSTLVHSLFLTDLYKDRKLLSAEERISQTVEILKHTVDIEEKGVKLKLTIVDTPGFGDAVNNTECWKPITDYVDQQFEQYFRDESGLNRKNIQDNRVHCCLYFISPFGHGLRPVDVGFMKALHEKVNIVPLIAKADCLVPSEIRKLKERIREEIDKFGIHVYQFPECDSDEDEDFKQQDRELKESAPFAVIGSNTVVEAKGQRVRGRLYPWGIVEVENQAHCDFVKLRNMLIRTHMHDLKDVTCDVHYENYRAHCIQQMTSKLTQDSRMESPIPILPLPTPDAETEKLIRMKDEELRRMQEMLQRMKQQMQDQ
UniProt O95470: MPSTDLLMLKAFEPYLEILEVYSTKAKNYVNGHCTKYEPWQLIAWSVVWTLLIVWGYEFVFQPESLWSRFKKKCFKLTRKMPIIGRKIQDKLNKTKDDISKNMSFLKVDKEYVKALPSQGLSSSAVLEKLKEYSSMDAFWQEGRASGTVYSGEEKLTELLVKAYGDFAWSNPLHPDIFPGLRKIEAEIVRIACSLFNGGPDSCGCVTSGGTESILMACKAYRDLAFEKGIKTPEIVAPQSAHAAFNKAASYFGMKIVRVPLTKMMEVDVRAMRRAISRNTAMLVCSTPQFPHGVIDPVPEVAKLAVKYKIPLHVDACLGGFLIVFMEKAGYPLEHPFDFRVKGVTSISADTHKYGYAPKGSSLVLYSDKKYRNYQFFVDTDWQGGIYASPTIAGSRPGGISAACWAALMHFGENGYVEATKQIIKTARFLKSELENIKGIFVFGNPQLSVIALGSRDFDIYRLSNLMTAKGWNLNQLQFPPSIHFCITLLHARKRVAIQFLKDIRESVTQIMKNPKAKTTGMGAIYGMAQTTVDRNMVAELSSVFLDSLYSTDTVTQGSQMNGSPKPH
UniProt Q9NRX5: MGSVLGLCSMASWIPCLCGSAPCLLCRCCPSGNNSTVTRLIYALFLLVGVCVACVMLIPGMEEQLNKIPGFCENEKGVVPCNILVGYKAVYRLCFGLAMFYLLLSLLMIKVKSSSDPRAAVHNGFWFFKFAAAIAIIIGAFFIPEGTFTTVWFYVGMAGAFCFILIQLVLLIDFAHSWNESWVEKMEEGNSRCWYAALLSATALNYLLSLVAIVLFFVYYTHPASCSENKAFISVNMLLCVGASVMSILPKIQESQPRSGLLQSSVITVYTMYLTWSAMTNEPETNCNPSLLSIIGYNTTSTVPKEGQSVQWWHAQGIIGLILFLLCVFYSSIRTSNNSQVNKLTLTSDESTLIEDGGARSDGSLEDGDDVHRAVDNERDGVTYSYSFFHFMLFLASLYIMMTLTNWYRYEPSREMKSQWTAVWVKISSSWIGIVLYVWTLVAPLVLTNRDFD
UniProt Q9NP50: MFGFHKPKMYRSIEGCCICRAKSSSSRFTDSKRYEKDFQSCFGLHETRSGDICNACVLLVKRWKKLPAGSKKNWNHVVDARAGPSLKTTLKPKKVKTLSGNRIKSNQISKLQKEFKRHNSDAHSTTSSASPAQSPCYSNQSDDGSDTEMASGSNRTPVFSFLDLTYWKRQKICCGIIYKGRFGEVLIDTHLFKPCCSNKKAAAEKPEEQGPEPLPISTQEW
UniProt P49908, whole entry, looked up: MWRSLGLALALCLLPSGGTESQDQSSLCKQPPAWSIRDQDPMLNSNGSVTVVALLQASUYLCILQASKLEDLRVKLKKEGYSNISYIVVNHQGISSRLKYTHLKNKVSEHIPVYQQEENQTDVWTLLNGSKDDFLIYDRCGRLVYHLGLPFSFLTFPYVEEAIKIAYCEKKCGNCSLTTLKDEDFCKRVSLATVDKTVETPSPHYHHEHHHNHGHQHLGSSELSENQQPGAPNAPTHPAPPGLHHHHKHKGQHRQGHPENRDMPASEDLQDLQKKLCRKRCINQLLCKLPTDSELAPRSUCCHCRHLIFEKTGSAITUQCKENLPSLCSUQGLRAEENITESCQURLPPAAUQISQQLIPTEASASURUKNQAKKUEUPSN
UniProt P05546: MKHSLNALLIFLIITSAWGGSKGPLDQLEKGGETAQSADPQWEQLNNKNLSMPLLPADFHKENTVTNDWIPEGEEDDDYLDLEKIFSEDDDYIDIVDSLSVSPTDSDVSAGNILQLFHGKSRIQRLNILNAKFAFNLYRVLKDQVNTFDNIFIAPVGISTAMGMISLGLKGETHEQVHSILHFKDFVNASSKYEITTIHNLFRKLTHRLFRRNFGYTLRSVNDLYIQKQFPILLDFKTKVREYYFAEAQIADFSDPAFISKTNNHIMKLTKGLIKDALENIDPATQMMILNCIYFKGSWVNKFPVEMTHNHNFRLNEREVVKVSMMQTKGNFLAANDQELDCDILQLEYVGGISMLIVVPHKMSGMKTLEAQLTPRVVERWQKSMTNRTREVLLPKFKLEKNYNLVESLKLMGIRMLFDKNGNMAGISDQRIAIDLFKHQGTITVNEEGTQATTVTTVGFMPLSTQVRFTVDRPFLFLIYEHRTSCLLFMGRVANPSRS
UniProt O95562: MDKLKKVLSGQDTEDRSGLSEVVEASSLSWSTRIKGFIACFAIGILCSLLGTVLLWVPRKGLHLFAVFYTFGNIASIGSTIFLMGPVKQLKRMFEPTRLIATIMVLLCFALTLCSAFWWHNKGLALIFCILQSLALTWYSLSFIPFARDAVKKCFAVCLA
UniProt Q9NP31, whole entry, looked up: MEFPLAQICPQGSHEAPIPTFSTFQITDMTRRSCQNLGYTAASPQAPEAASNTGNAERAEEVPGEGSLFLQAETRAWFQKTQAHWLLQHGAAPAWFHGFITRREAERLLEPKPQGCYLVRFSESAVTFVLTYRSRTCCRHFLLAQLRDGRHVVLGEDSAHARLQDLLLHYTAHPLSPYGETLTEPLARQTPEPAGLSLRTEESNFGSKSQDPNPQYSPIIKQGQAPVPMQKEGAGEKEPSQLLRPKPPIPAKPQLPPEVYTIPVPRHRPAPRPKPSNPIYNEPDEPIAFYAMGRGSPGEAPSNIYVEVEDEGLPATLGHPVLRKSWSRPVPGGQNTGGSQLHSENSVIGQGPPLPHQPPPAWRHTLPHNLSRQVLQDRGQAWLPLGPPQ
UniProt Q96BD8: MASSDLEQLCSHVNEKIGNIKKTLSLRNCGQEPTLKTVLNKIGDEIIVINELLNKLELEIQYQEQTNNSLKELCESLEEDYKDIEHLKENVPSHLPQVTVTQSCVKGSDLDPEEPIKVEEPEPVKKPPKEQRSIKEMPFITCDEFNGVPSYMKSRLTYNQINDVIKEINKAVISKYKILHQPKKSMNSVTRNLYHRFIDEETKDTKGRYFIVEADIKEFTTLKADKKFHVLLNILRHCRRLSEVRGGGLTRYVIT
UniProt Q8IX90, whole entry, looked up: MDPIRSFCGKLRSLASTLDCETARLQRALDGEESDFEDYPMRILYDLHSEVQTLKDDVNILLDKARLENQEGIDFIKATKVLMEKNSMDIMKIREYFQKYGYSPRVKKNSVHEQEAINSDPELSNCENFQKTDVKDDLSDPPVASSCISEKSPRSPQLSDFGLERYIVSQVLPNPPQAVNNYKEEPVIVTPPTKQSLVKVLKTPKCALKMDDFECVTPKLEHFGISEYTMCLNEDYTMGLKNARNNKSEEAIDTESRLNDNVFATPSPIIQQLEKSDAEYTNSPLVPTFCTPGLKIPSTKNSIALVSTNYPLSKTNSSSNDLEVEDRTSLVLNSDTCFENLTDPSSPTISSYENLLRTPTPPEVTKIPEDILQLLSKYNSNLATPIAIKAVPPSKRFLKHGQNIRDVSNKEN
UniProt Q9P0V9: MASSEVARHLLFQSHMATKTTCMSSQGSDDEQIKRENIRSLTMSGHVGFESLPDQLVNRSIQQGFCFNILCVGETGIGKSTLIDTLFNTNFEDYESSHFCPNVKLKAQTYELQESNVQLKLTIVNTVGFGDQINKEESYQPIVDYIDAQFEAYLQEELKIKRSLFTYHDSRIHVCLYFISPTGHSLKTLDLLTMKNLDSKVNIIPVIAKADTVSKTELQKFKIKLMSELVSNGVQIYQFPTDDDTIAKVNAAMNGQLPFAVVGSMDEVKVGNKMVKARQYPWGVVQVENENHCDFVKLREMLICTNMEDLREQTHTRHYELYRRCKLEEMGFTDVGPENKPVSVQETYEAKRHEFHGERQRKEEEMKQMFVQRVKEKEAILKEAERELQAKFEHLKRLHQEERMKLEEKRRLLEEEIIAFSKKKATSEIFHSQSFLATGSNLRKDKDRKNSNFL
UniProt Q8N196: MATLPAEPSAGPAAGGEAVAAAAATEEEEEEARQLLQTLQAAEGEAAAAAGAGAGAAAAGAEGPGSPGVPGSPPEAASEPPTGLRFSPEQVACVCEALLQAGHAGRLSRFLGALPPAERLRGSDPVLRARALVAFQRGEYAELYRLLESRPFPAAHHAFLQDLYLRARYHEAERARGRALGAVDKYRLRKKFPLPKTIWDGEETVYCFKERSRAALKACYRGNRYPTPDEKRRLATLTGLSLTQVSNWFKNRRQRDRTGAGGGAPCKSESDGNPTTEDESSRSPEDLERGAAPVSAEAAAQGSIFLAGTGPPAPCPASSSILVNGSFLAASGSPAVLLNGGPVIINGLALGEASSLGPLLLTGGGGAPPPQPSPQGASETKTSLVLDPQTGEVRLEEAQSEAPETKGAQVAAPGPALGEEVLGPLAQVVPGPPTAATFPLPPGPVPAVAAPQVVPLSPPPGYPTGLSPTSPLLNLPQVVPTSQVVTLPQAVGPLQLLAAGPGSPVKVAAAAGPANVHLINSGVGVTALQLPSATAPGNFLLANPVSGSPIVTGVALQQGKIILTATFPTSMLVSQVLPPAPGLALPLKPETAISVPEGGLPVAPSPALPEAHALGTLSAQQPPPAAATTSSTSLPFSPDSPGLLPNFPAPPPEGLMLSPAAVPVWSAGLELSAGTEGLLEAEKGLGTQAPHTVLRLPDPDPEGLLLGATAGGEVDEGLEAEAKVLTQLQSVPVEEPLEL
UniProt Q9C0D9, whole entry, looked up: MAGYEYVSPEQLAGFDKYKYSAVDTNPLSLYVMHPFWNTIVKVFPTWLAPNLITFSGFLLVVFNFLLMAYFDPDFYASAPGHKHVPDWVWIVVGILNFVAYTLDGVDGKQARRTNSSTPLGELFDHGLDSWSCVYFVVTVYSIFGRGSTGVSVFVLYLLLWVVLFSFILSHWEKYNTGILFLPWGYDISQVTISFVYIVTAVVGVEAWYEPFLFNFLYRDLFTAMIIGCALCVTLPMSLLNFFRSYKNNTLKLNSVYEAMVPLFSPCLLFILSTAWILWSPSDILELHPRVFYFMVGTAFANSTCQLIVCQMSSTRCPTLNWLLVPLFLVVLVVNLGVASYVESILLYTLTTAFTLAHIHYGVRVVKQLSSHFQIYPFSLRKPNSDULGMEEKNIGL
UniProt Q587I9: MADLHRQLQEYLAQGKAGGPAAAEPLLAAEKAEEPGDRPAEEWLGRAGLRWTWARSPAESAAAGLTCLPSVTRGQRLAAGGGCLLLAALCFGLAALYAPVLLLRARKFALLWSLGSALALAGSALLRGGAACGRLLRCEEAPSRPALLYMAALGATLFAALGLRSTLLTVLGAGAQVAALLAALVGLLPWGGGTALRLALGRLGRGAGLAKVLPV
UniProt P62341, whole entry, looked up: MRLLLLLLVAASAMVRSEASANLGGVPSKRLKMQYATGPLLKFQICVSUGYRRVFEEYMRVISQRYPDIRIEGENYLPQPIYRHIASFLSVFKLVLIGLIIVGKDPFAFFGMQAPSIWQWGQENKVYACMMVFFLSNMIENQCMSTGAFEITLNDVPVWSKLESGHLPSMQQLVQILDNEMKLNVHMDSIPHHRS
UniProt Q9Y6P5: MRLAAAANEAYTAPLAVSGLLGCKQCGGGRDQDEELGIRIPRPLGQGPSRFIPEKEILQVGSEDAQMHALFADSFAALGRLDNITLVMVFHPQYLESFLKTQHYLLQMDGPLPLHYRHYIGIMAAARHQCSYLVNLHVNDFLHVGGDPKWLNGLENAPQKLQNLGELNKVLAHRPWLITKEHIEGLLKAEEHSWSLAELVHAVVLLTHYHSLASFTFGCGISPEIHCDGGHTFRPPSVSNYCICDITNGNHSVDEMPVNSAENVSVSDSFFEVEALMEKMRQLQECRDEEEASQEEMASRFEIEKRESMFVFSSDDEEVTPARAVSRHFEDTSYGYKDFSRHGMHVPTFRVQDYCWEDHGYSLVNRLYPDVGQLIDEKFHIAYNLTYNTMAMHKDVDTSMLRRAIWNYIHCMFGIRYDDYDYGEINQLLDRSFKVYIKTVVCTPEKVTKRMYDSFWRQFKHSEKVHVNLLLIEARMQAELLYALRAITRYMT
UniProt Q9BWJ5: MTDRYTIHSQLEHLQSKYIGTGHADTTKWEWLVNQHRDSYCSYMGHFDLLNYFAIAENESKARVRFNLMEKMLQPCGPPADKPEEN
UniProt Q8IUQ4: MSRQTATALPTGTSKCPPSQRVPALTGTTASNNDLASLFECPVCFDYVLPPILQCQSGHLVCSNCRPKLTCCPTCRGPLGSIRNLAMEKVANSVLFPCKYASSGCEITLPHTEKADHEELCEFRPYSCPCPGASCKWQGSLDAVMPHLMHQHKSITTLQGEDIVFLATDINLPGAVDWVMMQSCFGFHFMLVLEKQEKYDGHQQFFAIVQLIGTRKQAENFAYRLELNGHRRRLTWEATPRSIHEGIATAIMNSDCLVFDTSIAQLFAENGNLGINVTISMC

How the values were obtained:
Test in all cases: log2 fold change, soluble protein after heating vs DMSO (PISA); higher = thermal stabilisation; K562 cells, 10 uM, 30 min; active = over 0.2 and 3.5 SD of the protein, either way, in both replicates (recomputed)
[1] = compound: COC1=CC=C(C=C1)CN2C=CC3=C2C=C(C=C3)C(=O)NO
In short: (§1)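 Values are thermal stability changes relative to control samples and are taken from duplicates. They are stated as log2 fold changes. Before quantification by TMTpro 16plex LC-MS/MS with equalised channel sums, K562 cells at 2×10^6 cells/mL were treated with 10 μM compound for 30 min, heated in aliquots for 3 min across 48°C-58°C, pooled, extracted in PBS with 0.5% NP-40 at 4°C, and centrifuged at 21,000xg for 90 min to give the soluble supernatant.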

filanesib = compound: CON(C)C(=O)N1N=C(c2cc(F)ccc2F)S[C@@]1(CCCN)c1ccccc1 [filanesib]
In short: as §1

zotarolimus = compound: CO[C@H]1C[C@@H]2CC[C@@H](C)[C@@](O)(O2)C(=O)C(=O)N2CCCC[C@H]2C(=O)O[C@H]([C@H](C)C[C@@H]2CC[C@H](n3cnnn3)[C@H](OC)C2)CC(=O)[C@H](C)/C=C(\C)[C@@H](O)[C@@H](OC)C(=O)[C@H](C)C[C@H](C)/C=C/C=C/C=C/1C [zotarolimus]
In short: as §1

idasanutlin = compound: COc1cc(C(=O)O)ccc1NC(=O)[C@@H]1N[C@@H](CC(C)(C)C)[C@](C#N)(c2ccc(Cl)cc2F)[C@H]1c1cccc(Cl)c1F [idasanutlin]
In short: as §1

alisertib = compound: COc1cc(Nc2ncc3c(n2)-c2ccc(Cl)cc2C(c2c(F)cccc2OC)=NC3)ccc1C(=O)O [alisertib]
In short: as §1

[2] = compound: COc1cc2nc(-c3cc(F)ccc3O)nc(N[C@@H]3CNC[C@H]3C(C)(C)O)c2cc1OC
In short: as §1

gefitinib = compound: COc1cc2ncnc(Nc3ccc(F)c(Cl)c3)c2cc1OCCCN1CCOCC1 [gefitinib]
In short: as §1

[3] = compound: COc1cccc2cc(-c3nc([C@H]4CC[C@H](C(=O)O)CC4)n4ncnc(N)c34)[nH]c12
In short: as §1

lapatinib = compound: CS(=O)(=O)CCNCc1ccc(-c2ccc3ncnc(Nc4ccc(OCc5cccc(F)c5)c(Cl)c4)c3c2)o1 [lapatinib]
In short: as §1

pictilisib = compound: CS(=O)(=O)N1CCN(Cc2cc3nc(-c4cccc5[nH]ncc45)nc(N4CCOCC4)c3s2)CC1 [pictilisib]
In short: as §1

[4] = compound: CS(=O)(=O)c1ccc(-c2cnc(N)c(C(=O)Nc3ccccc3)n2)cc1
In short: as §1

crizotinib = compound: C[C@@H](Oc1cc(-c2cnn(C3CCNCC3)c2)cnc1N)c1c(Cl)ccc(F)c1Cl [crizotinib]
In short: as §1

[5] = compound: C[C@@H]1COCCN1C2=NC(=NC(=C2)C3(CC3)S(=O)(=O)C)C4=C5C=CNC5=CC=C4
In short: as §1

[6] = compound: C[C@H](C1=CC=C(C=C1)C(=O)NC2=C3C=CNC3=NC=C2)N
In short: as §1

gandotinib = compound: Cc1cc(Nc2cc(CN3CCOCC3)c3nc(C)c(Cc4ccc(Cl)cc4F)n3n2)n[nH]1 [gandotinib]
In short: as §1

[7] = compound: Cc1cc(SCc2sc(-c3ccc(C(F)(F)F)cc3)nc2C)ccc1OCC(=O)O
In short: as §1

doramapimod = compound: Cc1ccc(-n2nc(C(C)(C)C)cc2NC(=O)Nc2ccc(OCCN3CCOCC3)c3ccccc23)cc1 [doramapimod]
In short: as §1

ispinesib = compound: Cc1ccc(C(=O)N(CCCN)[C@@H](c2nc3cc(Cl)ccc3c(=O)n2Cc2ccccc2)C(C)C)cc1 [ispinesib]
In short: as §1

duvelisib = compound: C[C@H](Nc1ncnc2nc[nH]c12)c1cc2cccc(Cl)c2c(=O)n1-c1ccccc1 [duvelisib]
In short: as §1

tozasertib = compound: Cc1cc(Nc2cc(N3CCN(C)CC3)nc(Sc3ccc(NC(=O)C4CC4)cc3)n2)n[nH]1 [tozasertib]
In short: as §1

Measured: log2 fold change

SEPTIN5 (UniProt Q99719)
inactive: [1] 0.034 | filanesib -0.003 | zotarolimus 0.013 | idasanutlin -0.067 | alisertib -0.044 | [2] 0 | gefitinib 0.006 | [3] 0.02 | lapatinib -0.035 | pictilisib 0.08 | [4] 0.004 | crizotinib 0.017 | [5] 0.036 | [6] -0.036 | gandotinib -0.023 | [7] -0.017 | doramapimod -0.017 | ispinesib 0.027

SGPL1 (UniProt O95470)
inactive: [1] -0.064 | filanesib 0.107 | zotarolimus -0.011 | idasanutlin 0.051 | alisertib -0.046 | [2] 0.012 | gefitinib 0.001 | [3] -0.115 | lapatinib 0.04 | pictilisib -0.013 | [4] 0.095 | crizotinib 0.077 | [5] -0.034 | [6] 0.011 | gandotinib 0.259 | [7] 0.024 | doramapimod 0.084 | ispinesib 0.077

SERINC1 (UniProt Q9NRX5)
inactive: [1] 0.073 | filanesib -0.146 | idasanutlin 0.233 | alisertib 0.073 | [2] -0.208 | gefitinib -0.266 | [3] -0.167 | lapatinib -0.227 | [4] 0.075 | crizotinib -0.197 | [5] 0.037 | [7] -0.016 | doramapimod 0.068 | ispinesib -0.048

SINHCAF (UniProt Q9NP50)
inactive: [1] 0.595 | filanesib -0.94 | [4] 0.789 | crizotinib 1.75 | [5] 1.03 | doramapimod 0.485

SEPTIN5 (UniProt G3XAH0)
inactive: filanesib -0.044 | zotarolimus 0.045 | idasanutlin 0.027 | alisertib 0.003 | [2] 0.011 | gefitinib -0.057 | [3] 0.036 | lapatinib 0.094 | pictilisib 0.051 | [4] -0.042 | [5] 0.087 | [6] -0.089 | gandotinib -0.153 | [7] -0.036 | ispinesib -0.017

SIK3 (UniProt H0Y4E8)
inactive: [1] -0.015 | filanesib 0.085 | zotarolimus -0.073 | idasanutlin -0.065 | alisertib -0.018 | [2] 0.077 | gefitinib -0.026 | [3] 0.466 | lapatinib 0.036 | pictilisib -0.007 | [4] -0.144 | crizotinib 0.084 | [6] 0.027 | gandotinib 0.118 | [7] -0.056 | doramapimod -0.058 | ispinesib 0.185

SELENOP (UniProt P49908)
inactive: [1] 0.081 | filanesib -0.052 | alisertib 0.048 | [3] 0.417 | [4] 0.096 | crizotinib -0.018 | doramapimod 0.094

SERPIND1 (UniProt P05546)
inactive: [1] -0.01 | zotarolimus -0.031 | alisertib -0.196 | gefitinib 0.812 | [3] 0.303 | pictilisib -0.118 | crizotinib -0.118 | [5] -0.091 | [6] 0.226 | gandotinib -0.113 | doramapimod 0.074

SFT2D2 (UniProt O95562)
inactive: filanesib -0.058 | zotarolimus 0.038 | idasanutlin 0.094 | alisertib 0.018 | [2] 0.071 | gefitinib -0.067 | [3] 0.033 | lapatinib -0.031 | pictilisib 0.046 | [4] 0.021 | [5] -0.014 | [6] -0.181 | duvelisib 0.164 | gandotinib -0.064 | tozasertib 0.009 | [7] 0.019 | ispinesib 0.054

SH2D2A isoform 2 (UniProt Q9NP31)
inactive: [1] -0.253 | zotarolimus 0.195 | idasanutlin 0.167 | alisertib -0.025 | [2] -0.02 | gefitinib 0.02 | [3] 0.075 | lapatinib -0.281 | pictilisib 0.277 | crizotinib 0.171 | [6] -0.043 | duvelisib -0.089 | gandotinib -0.142 | [7] -0.19 | doramapimod -0.038

SKA1 (UniProt Q96BD8)
inactive: [1] -0.052 | filanesib 0.08 | zotarolimus 0.091 | alisertib -0.29 | [2] -0.011 | gefitinib -0.018 | [3] -0.206 | lapatinib 0.011 | pictilisib -0.007 | [4] 0.013 | crizotinib -0.018 | [5] -0.295 | [6] 0.341 | duvelisib -0.153 | gandotinib -0.237 | [7] 0.052 | doramapimod 0.286 | ispinesib 0.125

SKA3 (UniProt Q8IX90)
inactive: [1] -0.009 | filanesib 0.153 | zotarolimus 0.024 | alisertib -0.107 | [2] -0.058 | gefitinib -0.01 | [3] -0.114 | lapatinib 0.025 | pictilisib -0.131 | [4] -0.029 | crizotinib -0.074 | [5] -0.185 | [6] 0.195 | duvelisib 0.071 | gandotinib -0.047 | tozasertib 0.191 | [7] 0.036 | doramapimod 0.122 | ispinesib -0.358

2 successive entries out of the list so far, quoted:
SERPIND1 (UniProt P05546)
inactive: [1] -0.01 | zotarolimus -0.031 | alisertib -0.196 | gefitinib 0.812 | [3] 0.303 | pictilisib -0.118 | crizotinib -0.118 | [5] -0.091 | [6] 0.226 | gandotinib -0.113 | doramapimod 0.074

SFT2D2 (UniProt O95562)
inactive: filanesib -0.058 | zotarolimus 0.038 | idasanutlin 0.094 | alisertib 0.018 | [2] 0.071 | gefitinib -0.067 | [3] 0.033 | lapatinib -0.031 | pictilisib 0.046 | [4] 0.021 | [5] -0.014 | [6] -0.181 | duvelisib 0.164 | gandotinib -0.064 | tozasertib 0.009 | [7] 0.019 | ispinesib 0.054

More results follow.

SIGIRR (UniProt H0YDR5)
inactive: [1] -0.106 | pictilisib 0.116 | crizotinib 0.248 | gandotinib -0.052 | doramapimod -0.032

SEPTIN10 isoform 2 (UniProt Q9P0V9)
inactive: filanesib -0.023 | zotarolimus -0.064 | idasanutlin 0.037 | alisertib -0.087 | [2] 0.012 | gefitinib -0.039 | [3] 0.045 | lapatinib -0.042 | pictilisib 0.034 | [4] -0.035 | [5] 0.092 | [6] -0.015 | duvelisib 0.072 | gandotinib -0.12 | tozasertib 0.055 | [7] -0.048

SIX5 (UniProt Q8N196)
inactive: [1] 0.031 | zotarolimus -0.053 | idasanutlin 0.105 | alisertib -0.203 | [3] 0.131 | pictilisib 0.047 | crizotinib 0.017 | [6] -0.049 | duvelisib 0.102 | gandotinib 0.008 | [7] -0.058 | doramapimod 0.005 | ispinesib 0.072

SELENOI (UniProt Q9C0D9)
inactive: [1] 0.106 | crizotinib -0.295 | doramapimod -0.025 | ispinesib -0.368

SFT2D3 (UniProt Q587I9)
inactive: [1] 0.024 | filanesib 0.052 | zotarolimus 0.058 | alisertib -0.164 | [2] -0.062 | gefitinib 0.145 | [3] 0.123 | lapatinib 0 | pictilisib -0.014 | [4] -0.037 | crizotinib 0.02 | [5] 0.047 | [6] -0.093 | duvelisib 0.116 | gandotinib -0.05 | tozasertib 0.001 | [7] -0.151 | doramapimod 0.01 | ispinesib 0.095

SELENOT (UniProt P62341)
inactive: [1] -0.022 | filanesib -0.077 | idasanutlin 0.086 | alisertib 0.01 | [2] -0.101 | gefitinib -0.098 | [3] 0.023 | lapatinib -0.163 | pictilisib -0.026 | [4] 0.005 | crizotinib 0.004 | [5] -0.018 | duvelisib 0.077 | gandotinib -0.304 | tozasertib -0.064 | [7] 0.025 | doramapimod 0.04 | ispinesib -0.014

SESN1 isoform 2 (UniProt Q9Y6P5)
inactive: [1] -0.071 | crizotinib -0.024 | tozasertib 0.03 | doramapimod 0.272

SHB (UniProt Q15464)
inactive: filanesib -0.012 | zotarolimus 0.171 | idasanutlin -0.083 | alisertib 0.063 | [2] 0.031 | [3] 0.042 | lapatinib -0.009 | pictilisib -0.275 | [4] 0.183 | [6] -0.053 | duvelisib 0.014 | gandotinib -0.117 | tozasertib 0.154 | [7] -0.014

SHANK2 isoform 3 (UniProt Q9UPX8)
inactive: [1] 0.086 | filanesib 0.077 | gefitinib 0.065 | [4] 0.14 | crizotinib 0.046 | [5] 0.027 | doramapimod -0.094

SF3B5 (UniProt Q9BWJ5)
inactive: [1] 0.19 | filanesib 0.2 | idasanutlin 0.085 | alisertib -0.122 | [2] -0.026 | gefitinib 0.027 | [3] 0.044 | lapatinib -0.051 | pictilisib -0.069 | [4] 0.027 | crizotinib -0.012 | [5] 0.176 | gandotinib 0.087 | [7] 0.002 | doramapimod -0.089

SF1 (UniProt H7C0N4)
inactive: [1] 0.163 | zotarolimus 0.076 | idasanutlin 0.076 | alisertib -0.028 | [2] -0.043 | gefitinib -0.179 | [3] 0.106 | lapatinib 0.04 | crizotinib -0.087 | [6] -0.071 | duvelisib -0.067 | tozasertib 0.101 | [7] -0.146 | doramapimod 0.049 | ispinesib -0.017

SIAH1 isoform 2 (UniProt Q8IUQ4)
inactive: [1] 0.152 | filanesib -0.049 | zotarolimus 0.057 | idasanutlin -0.067 | [2] -0.058 | lapatinib 0.018 | pictilisib 0.081 | [4] -0.016 | crizotinib -0.095 | [5] 0.37 | [6] 0.034 | duvelisib -0.004 | gandotinib 0.07 | tozasertib -0.155 | [7] 0.022 | doramapimod -0.016
